Measured values as given in PubChem BioAssay AID493014 (National Center for Advancing Translational Sciences (NCATS), 2011).
The list shows a part of the results. Further columns of the screen follow, without active or inactive calls. Most of these compounds were active or inconclusive in the main read-out, so they are no random draw. The note in brackets gives the kind of curve behind each potency; many fits are weak.

Experiment: qHTS Assay to Find Inhibitors of Chronic Active B-Cell Receptor Signaling
Settings: ABC-DLBCL IkBa-CBG/CBR reporter, luminescence ratio (green luciferase fused to IkBa over red control in TMD8 lymphoma cells), 4 h
In short: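 Concentration-response series (up to 46 uM) were applied to TMD8 dual-reporter cells for 4 h at 37C with doxycycline. Green/red ratio, after filter-overlap correction, defined %Activity; red signal alone was normalised to basal cells and zero luminescence.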

[1] = measured here: CBR red luminescence, cell number
[2] = measured here: IkBa-CBG green luminescence

Row | Compound | AC50 [1] | AC50 [2]
1 | O=C(COc1ccc(Cl)cc1Br)NCC(c1ccco1)N1CCCC1 (stereo unspecified) | 20.6 µM [rising, single point] | –
2 | Cc1ccc(O)c(CNCCNCc2cc(C)ccc2O)c1 | 29.1 µM [falling, single point] | –
3 | CCn1nc(C)cc1C(=O)Sc1cccc(Cl)c1 | 8.91 µM [falling, partial curve, poor fit] | –
4 | Cc1ccc2nc(NC3=NCN(Cc4cccnc4)CN3)nc(C)c2c1 | 16.4 µM [rising, single point] | –
5 | CCN(CC(=O)Nc1ccccc1C(F)(F)F)C(=O)c1ccc2[nH]c3c(c2c1)CC(C)CC3 (stereo unspecified) | 11.6 µM [rising, partial curve, poor fit] | –
6 | CCN(CC)S(=O)(=O)c1ccc(C(=O)NCCOC(=O)c2ccc(F)cc2F)cc1 | 0.501 µM [rising, partial curve, poor fit] | –
7 | CCOc1ccc2c(c1)C(=O)c1cc(OCC(=O)O)ccc1-2 | 7.08 µM [falling, full curve, poor fit] | –
8 | O=C(c1ccccc1)N1CCN(CC#Cc2ccccc2)CC1 | 5.62 µM [rising, single point] | –
9 | CC1C/C(=N\NC(=O)c2cccnc2)CC(C)(C)C1 (stereo unspecified) | 35.5 µM [falling, single point] | –
10 | CCOc1cccc(-c2c(C(=O)N/N=C/c3cccs3)nnn2-c2nonc2N)c1 | 10 µM [falling, partial curve, poor fit] | –
11 | N#Cc1ccc(CSC2=NCCN2)cc1 | 35.5 µM [falling, single point] | –
12 | CCOc1cc(C(=O)Nc2ccc3c(c2)OCO3)ccc1OC(F)F | 0.224 µM [rising, full curve, poor fit] | –
13 | Cn1nc(-c2ccc(Cl)cc2)c2cc(C(=O)NCCCN3CCCC3)sc21 | 29.1 µM [falling, single point] | –
14 | CC(C(=O)Nc1ccccc1)N1CCN(c2ccccn2)CC1 (stereo unspecified) | 0.112 µM [rising, full curve, poor fit] | –
15 | CCN(CC)CCOC(=O)c1ccc(NC(=O)c2ccc(Cl)c(S(=O)(=O)N3CCCCCC3)c2)cc1 | 14.1 µM [falling, single point] | –
16 | NC(=O)C1CCN(C(=O)CSCc2ccccc2Cl)CC1 | 3.98 µM [falling, partial curve, poor fit] | –
17 | O=C(NC(=O)c1ccccc1)NC1(C(F)(F)F)OCCO1 | 0.891 µM [rising, full curve, poor fit] | –
18 | Cc1ccc(S(=O)(=O)N2CC(=NN=C(N)N)C2)cc1 | 35.5 µM [falling, partial curve, poor fit] | –
19 | COc1ccccc1OCC(=O)Nc1ccccn1 | 8.91 µM [falling, partial curve, poor fit] | –
20 | O=[N+]([O-])c1ccc(N/N=C/c2cccc(O)c2)cc1 | 31.6 µM [falling, single point] | –
21 | CCn1c2ccccc2c2cc(NC(=O)CSc3nnc(-c4ccccc4OC)n3N)ccc21 | 35.5 µM [falling, partial curve, poor fit] | –
22 | Cc1occc1-c1nnc(SCC(=O)Nc2ccccc2)n1C | 35.5 µM [rising, single point] | –

Row | Compound | AC50 [1] | AC50 [2]
23 | Cc1ccc(C(C)C)cc1OCCOCCN1CCCC1 | 1.46 µM [rising, partial curve, poor fit] | –
24 | Cc1cc(/C([O-])=C(/C(=S)Nc2ccc(F)cc2)[n+]2ccccc2)c(C)n1Cc1ccccc1Cl | 3.55 µM [falling, partial curve, poor fit] | –
25 | O=C(N/N=C/c1cnc2ccccc2n1)c1cccc(F)c1 | 14.6 µM [falling, partial curve, poor fit] | –
26 | Cc1ccc2oc(C(=O)N(CCO)Cc3ccccc3)c(C)c2c1 | 25.1 µM [rising, single point] | –
27 | CCC(=O)Nc1cccc(NC(=O)c2ccc(C)c([N+](=O)[O-])c2)c1 | 11.2 µM [falling, partial curve] | –
28 | Cc1cc(NC(=O)c2ccc(S(=O)(=O)N3CCOCC3)cc2)nc2c1c(=O)oc1ccccc12 | 0.631 µM [falling, full curve, poor fit] | –
29 | Cn1c(=O)c2c(nc(Oc3ccccc3N)n2C)n(C)c1=O | 17.8 µM [falling, single point] | –
30 | O=C(O)CCC/C=C\C[C@@H]1[C@@H](/C=C/[C@@H](O)COc2cccc(Cl)c2)[C@H](O)C[C@@H]1O | 9.2 µM [rising, partial curve] | –
31 | O=C(C[n+]1ccc(C(=O)NCc2ccccc2)cc1)c1ccc(Cl)cc1 | 4.47 µM [falling, single point] | –
32 | CCOC(=O)C1CCN(c2c(C(=O)c3ccccc3)cnc3ccc(CC)cc23)CC1 | 0.708 µM [rising, full curve, poor fit] | –
33 | CC(C)OC(=O)c1c(F)c(F)c(N2CCOCC2)c(F)c1F | 10 µM [rising, partial curve, poor fit] | –
34 | COc1ccccc1C(=O)N1CCN(c2cccc(Cl)c2)CC1 | 14.1 µM [rising, single point] | 17.8 µM [falling, partial curve, poor fit]
35 | COc1ccc(-c2sc3cc(OC)c(OC)cc3c2C#CCCO)cc1 | 11.6 µM [rising, partial curve, poor fit] | –
36 | S=C(NCCCc1ccccc1)Nc1ccc(Br)cc1 | 35.5 µM [falling, single point] | –
37 | CN(c1ccccc1)c1nc(N)c([N+](=O)[O-])c(Nc2cccc(F)c2)n1 | 2.82 µM [rising, full curve] | –
38 | CCc1ccc2[nH]c(=O)c(CN(Cc3nnnn3C3CCCC3)C3CCCCC3)cc2c1 | 35.5 µM [rising, partial curve, poor fit] | –
39 | O=S(=O)(/C(=C/c1ccc(C(F)(F)F)cc1)c1nc2ccccc2[nH]1)c1ccccc1 | 18.4 µM [falling, partial curve] | 18.4 µM [rising, single point]
40 | Cc1cccc(NC(=O)/C(C#N)=C\c2cn(CC(=O)O)c3ccccc23)c1 | 14.1 µM [falling, partial curve, poor fit] | –
41 | COc1ccc(Br)cc1CNC(=O)Nc1cccs1 | 29.1 µM [falling, single point] | –
42 | O=CC(=O)c1ccccc1 | 2.06 µM [falling, full curve, poor fit] | –
43 | CC(C)/C(=N/Nc1ccccc1[N+](=O)[O-])c1ccccc1 | 11.2 µM [rising, single point] | –
44 | Fc1ccc(-n2cc(CNCCc3ccncc3)c(-c3ccccc3Cl)n2)cc1 | 2.24 µM [falling, partial curve, poor fit] | –

3 compounds out of the list, sorted by molar mass, low to high:
Row | Compound | AC50 [1] | AC50 [2]
27 | CCC(=O)Nc1cccc(NC(=O)c2ccc(C)c([N+](=O)[O-])c2)c1 | 11.2 µM [falling, partial curve] | –
37 | CN(c1ccccc1)c1nc(N)c([N+](=O)[O-])c(Nc2cccc(F)c2)n1 | 2.82 µM [rising, full curve] | –
35 | COc1ccc(-c2sc3cc(OC)c(OC)cc3c2C#CCCO)cc1 | 11.6 µM [rising, partial curve, poor fit] | –

Going on with the list:

Row | Compound | AC50 [1] | AC50 [2]
45 | CCN(CC)CCOC(=O)C12CC3CC(CC(C3)C1)C2 | 3.16 µM [rising, full curve, poor fit] | –
46 | COCCN(C(=O)COC(=O)c1ccc(C)s1)c1c(N)n(Cc2ccccc2)c(=O)[nH]c1=O | 32.6 µM [rising, partial curve, poor fit] | –
47 | O=C(/C=C/c1ccc2c(c1)S(=O)(=O)N(Cc1ccccc1)[C@H]2CC(=O)N1CCOCC1)N1CCOCC1 | 4.11 µM [rising, full curve, poor fit] | –
48 | Oc1ccc(/C=N/NC(=S)Nc2cccnc2)cc1O | 20.6 µM [falling, single point] | –
49 | CNc1ccccc1C(=O)OCC(=O)Nc1ccc2c(c1)OCO2 | 13 µM [falling, partial curve, poor fit] | –
50 | CCOC(=O)CNC(=O)CN1CCCN(S(=O)(=O)c2ccc(Br)s2)CC1 | 6.31 µM [rising, single point] | –
51 | Nc1nc(N2CCCCC2)nc(N2CCCCC2)n1 | 8.2 µM [rising, partial curve, poor fit] | –
52 | CNC(=O)c1cc(S(=O)(=O)N(C)C)ccc1Cl | 20.6 µM [rising, single point] | –
53 | CCOC(=O)c1[nH]c(C)c(C(=O)Nc2ccc3c(c2)CCC3)c1C | 6.31 µM [rising, partial curve] | –
54 | O=C(N/N=C1\CCCc2ccccc21)C(O)c1ccccc1 (stereo unspecified) | 35.5 µM [falling, single point] | –
55 | O=C(O)c1cccc(Nc2c([N+](=O)[O-])c(=O)oc3ccccc23)c1 | 7.94 µM [falling, partial curve] | –
56 | c1cc(SC2CCCCC2)cc(-c2nc3cnccn3c2NC2CCCCC2)c1 | 3.26 µM [falling, partial curve, poor fit] | –
57 | COC(=O)c1c(C)[nH]c(C(=O)CN2C(=O)C3CC=CCC3C2=O)c1C (stereo unspecified) | 20.6 µM [falling, partial curve, poor fit] | –
58 | Cc1cccc(Cl)c1OCCCn1ccnc1 | 15.8 µM [rising, partial curve, poor fit] | –
59 | O=C(NNC(=O)c1ccc[nH]1)c1cccc(C(F)(F)F)c1 | 3.98 µM [rising, single point] | –
60 | CCOc1cccc(C2C(C#N)=C(N)Oc3cc(C)[nH]c(=O)c32)c1OCC (stereo unspecified) | 10 µM [rising, partial curve] | –
61 | CC1(C)Cc2c(c(N3CCOCC3)nc3sc4c(=O)[nH]cnc4c23)CS1 | 10 µM [rising, partial curve] | –
62 | COc1cccc(/C=N/NC(=O)c2c(C)nc3ccc(Br)cn23)c1 | 15.8 µM [falling, single point] | –
63 | CC(=O)N1CCN(C(=S)c2ccc(-c3ccc(Cl)cc3)o2)CC1 | 3.98 µM [rising, full curve, poor fit] | –
64 | CCc1nc(SCC(=O)c2ccccc2)c2c(=O)n(C)c(=O)n(C)c2n1 | 3.55 µM [falling, partial curve, poor fit] | –
